Laboratory results: paper PMC4619598

T1: MET18-3FLAG-3HA (Arabidopsis thaliana) (UniProt Q0WVF8)
T1 sequence: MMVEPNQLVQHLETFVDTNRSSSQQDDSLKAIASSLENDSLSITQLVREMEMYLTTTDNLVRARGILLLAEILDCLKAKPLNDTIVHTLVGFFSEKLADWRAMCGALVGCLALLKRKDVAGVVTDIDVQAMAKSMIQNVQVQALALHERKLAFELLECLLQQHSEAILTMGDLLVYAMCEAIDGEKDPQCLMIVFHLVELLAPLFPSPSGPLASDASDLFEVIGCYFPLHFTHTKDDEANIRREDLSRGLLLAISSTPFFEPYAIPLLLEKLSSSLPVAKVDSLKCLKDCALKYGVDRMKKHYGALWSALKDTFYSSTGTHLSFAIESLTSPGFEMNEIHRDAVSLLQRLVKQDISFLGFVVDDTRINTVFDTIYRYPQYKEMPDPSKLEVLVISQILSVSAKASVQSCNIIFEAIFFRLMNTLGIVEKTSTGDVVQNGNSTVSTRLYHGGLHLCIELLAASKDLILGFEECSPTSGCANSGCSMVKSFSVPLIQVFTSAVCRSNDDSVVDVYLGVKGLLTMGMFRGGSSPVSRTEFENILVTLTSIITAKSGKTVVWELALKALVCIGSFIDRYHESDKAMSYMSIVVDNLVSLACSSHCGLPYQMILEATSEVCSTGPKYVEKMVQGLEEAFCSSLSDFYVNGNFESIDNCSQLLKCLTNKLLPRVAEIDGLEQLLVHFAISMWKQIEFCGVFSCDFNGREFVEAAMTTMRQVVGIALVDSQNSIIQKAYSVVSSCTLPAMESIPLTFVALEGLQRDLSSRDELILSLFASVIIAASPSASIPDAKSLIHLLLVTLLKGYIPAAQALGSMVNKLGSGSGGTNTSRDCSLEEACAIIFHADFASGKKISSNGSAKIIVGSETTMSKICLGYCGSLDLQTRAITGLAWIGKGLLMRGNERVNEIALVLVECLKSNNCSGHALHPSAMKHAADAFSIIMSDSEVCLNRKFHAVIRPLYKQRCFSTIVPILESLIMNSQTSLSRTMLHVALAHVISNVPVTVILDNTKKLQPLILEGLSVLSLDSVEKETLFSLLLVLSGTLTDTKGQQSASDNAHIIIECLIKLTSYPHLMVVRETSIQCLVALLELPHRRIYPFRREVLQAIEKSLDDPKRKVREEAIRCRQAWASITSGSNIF

B1: AE7 (protein, UniProt Q9C9G6 1-157)
chain: MVSGLINENPIIYPKKERRLRTDTSITDELTPEPIDQLEIFDHIRDIKDPEHPNTLEDLRVVTEDSVEVDDENSYVRVTFTPTVEHCSMATVIGLCVRVKLLRSLPSRYKIDIRVAPGSHATEDALNKQLNDKERVAAALENPNLVEMVDECLPSEE
B2: CIA1 (protein, UniProt O80990 1-352)
chain: MDLMEKNLELVEIQKLEGHTDRVWSVAWNPVSSHADGVSPILASCSGDNTVRIWEQSSLSRSWTCKTVLEETHTRTVRSCAWSPSGQLLATASFDGTTGIWKNYGSEFECISTLEGHENEVKSVSWNASGSCLATCSRDKSVWIWEVLEGNEYDCAAVLTGHTQDVKMVQWHPTMDVLFSCSYDNTIKVWWSEDDDGEYQCVQTLGESNNGHSSTVWSISFNAAGDKMVTCSDDLTLKIWGTDIAKMQSGEEYAPWIHLCTLSGYHDRTIYSAHWSRDDIIASGAGDNAIRLFVDSKHDSVDGPSYNLLLKKNKAHENDVNSVQWSPGEGNRLLASASDDGMVKIWQLATKP
B3: ROS1 (protein, UniProt Q9SJQ6 1-1393)
chain: MEKQRREESSFQQPPWIPQTPMKPFSPICPYTVEDQYHSSQLEERRFVGNKDMSGLDHLSFGDLLALANTASLIFSGQTPIPTRNTEVMQKGTEEVESLSSVSNNVAEQILKTPEKPKRKKHRPKVRREAKPKREPKPRAPRKSVVTDGQESKTPKRKYVRKKVEVSKDQDATPVESSAAVETSTRPKRLCRRVLDFEAENGENQTNGDIREAGEMESALQEKQLDSGNQELKDCLLSAPSTPKRKRSQGKRKGVQPKKNGSNLEEVDISMAQAAKRRQGPTCCDMNLSGIQYDEQCDYQKMHWLYSPNLQQGGMRYDAICSKVFSGQQHNYVSAFHATCYSSTSQLSANRVLTVEERREGIFQGRQESELNVLSDKIDTPIKKKTTGHARFRNLSSMNKLVEVPEHLTSGYCSKPQQNNKILVDTRVTVSKKKPTKSEKSQTKQKNLLPNLCRFPPSFTGLSPDELWKRRNSIETISELLRLLDINREHSETALVPYTMNSQIVLFGGGAGAIVPVTPVKKPRPRPKVDLDDETDRVWKLLLENINSEGVDGSDEQKAKWWEEERNVFRGRADSFIARMHLVQGDRRFTPWKGSVVDSVVGVFLTQNVSDHLSSSAFMSLASQFPVPFVPSSNFDAGTSSMPSIQITYLDSEETMSSPPDHNHSSVTLKNTQPDEEKDYVPSNETSRSSSEIAISAHESVDKTTDSKEYVDSDRKGSSVEVDKTDEKCRVLNLFPSEDSALTCQHSMVSDAPQNTERAGSSSEIDLEGEYRTSFMKLLQGVQVSLEDSNQVSPNMSPGDCSSEIKGFQSMKEPTKSSVDSSEPGCCSQQDGDVLSCQKPTLKEKGKKVLKEEKKAFDWDCLRREAQARAGIREKTRSTMDTVDWKAIRAADVKEVAETIKSRGMNHKLAERIQGFLDRLVNDHGSIDLEWLRDVPPDKAKEYLLSFNGLGLKSVECVRLLTLHHLAFPVDTNVGRIAVRLGWVPLQPLPESLQLHLLEMYPMLESIQKYLWPRLCKLDQKTLYELHYQMITFGKVFCTKSKPNCNACPMKGECRHFASAFASARLALPSTEKGMGTPDKNPLPLHLPEPFQREQGSEVVQHSEPAKKVTCCEPIIEEPASPEPETAEVSIADIEEAFFEDPEEIPTIRLNMDAFTSNLKKIMEHNKELQDGNMSSALVALTAETASLPMPKLKNISQLRTEHRVYELPDEHPLLAQLEKREPDDPCSYLLAIWTPGETADSIQPSVSTCIFQANGMLCDEETCFSCNSIKETRSQIVRGTILIPCRTAMRGSFPLNGTYFQVNEVFADHASSLNPINVPRELIWELPRRTVYFGTSVPTIFKGLSTEKIQACFWKGYVCVRGFDRKTRGPKPLIARLHFPASKLKGQQANLA

Molecular target: T1, MET18-3FLAG-3HA (Arabidopsis thaliana)
Assay: affinity purification with mass spectrometry; MET18-3FLAG-3HA captured on anti-FLAG M2 agarose beads from flower tissue lysate of transgenic plants; lysis buffer 50 mM Tris pH 7.6, 150 mM NaCl, 5 mM MgCl2, 10% glycerol, 0.1% NP-40, 0.5 mM DTT; 4°C, 2-3 hours; 35S::SUC2 plants as negative control

| Binder | binding |
| --- | --- |
| B1 | binds |
| B2 | binds |
| B3 | binds |

These are yes or no findings as the source states them, for the method shown. In cells and extracts the contact can be indirect. These calls come from enrichment with a bait or labelling near it, and not all partners need be listed. Where a sequence is shown, tags or fusion partners need not be part of it.
